Earlier results in paper PMC4047138 (Pharmacological research : the official journal of the …, 2013).

Tested on: GnRHR[E^90K]
Settings: mouse, in vivo; cited from earlier work

## Cc1cc(C)cc(-c2[nH]c3ccc(C(C)(C)C(=O)N4CC5CCC4CC5)cc3c2[C@H](C)CNCCc2ccncc2)c1 [IN3, (2S)-2-[5-[2-(2-azabicyclo[2.2.2]oct-2-yl)-1,1-dimethyl-2-oxoethyl]-2-(3,5-dimethylphenyl)-1H-indol-3-yl]-N-(2-pyridin-4-ylethyl)propan-1-amine]
  CYP11A1 protein expression in testes (wild-type = 100%): 50%
